We go through three sequences from PMC5128727, “Metalloprotease SPRTN/DVC1 Orchestrates Replication-Coupled DNA-Protein Crosslink Repair”.

Holding throughout (assay): fluorescence polarization
(Fluorescence polarisation rises when a labelled molecule tumbles more slowly, as on binding a larger partner.)

Data set [1] has as its target T1, SPRTN E112A (human) (UniProt Q9H040).
T1 sequence (looked up): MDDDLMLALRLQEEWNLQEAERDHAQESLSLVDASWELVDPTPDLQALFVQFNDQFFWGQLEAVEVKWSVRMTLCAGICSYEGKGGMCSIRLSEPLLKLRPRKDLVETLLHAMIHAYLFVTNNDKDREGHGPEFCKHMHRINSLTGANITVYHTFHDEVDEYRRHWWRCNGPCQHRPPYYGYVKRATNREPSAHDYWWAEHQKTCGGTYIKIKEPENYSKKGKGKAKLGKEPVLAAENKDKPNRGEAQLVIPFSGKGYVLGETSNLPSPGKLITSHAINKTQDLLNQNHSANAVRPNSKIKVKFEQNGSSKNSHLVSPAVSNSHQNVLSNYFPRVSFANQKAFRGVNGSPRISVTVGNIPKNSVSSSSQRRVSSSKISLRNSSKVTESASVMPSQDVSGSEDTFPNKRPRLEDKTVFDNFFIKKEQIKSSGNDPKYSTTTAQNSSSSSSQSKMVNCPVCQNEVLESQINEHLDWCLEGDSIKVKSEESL
Conditions: affinity similar to WT, Probe annealing buffer: 10 mM HEPES pH 7.5, 50 mM NaCl, recombinant protein, residues 1-489, protein details: His-ZB tag cleaved by TEV.

Data set [2] deals with T2, SPRTN Y117C (human) (UniProt Q9H040).
T2 sequence (looked up): T1 sequence (looked up) with A112E, Y117C
Particulars: affinity similar to WT, Probe annealing buffer: 10 mM HEPES pH 7.5, 50 mM NaCl, recombinant protein, residues 1-489, protein details: His-ZB tag cleaved by TEV.

For data set [3], the target named is T3, SPRTN WT (human) (UniProt Q9H040).
T3 sequence (looked up): T1 sequence (looked up) with A112E
Particulars: Probe annealing buffer: 10 mM HEPES pH 7.5, 50 mM NaCl, recombinant protein, residues 1-489, protein details: His-ZB tag cleaved by TEV.

Data set [4] addresses T4, SPRTN-ΔC (human) (UniProt Q9H040).
T4 sequence (looked up): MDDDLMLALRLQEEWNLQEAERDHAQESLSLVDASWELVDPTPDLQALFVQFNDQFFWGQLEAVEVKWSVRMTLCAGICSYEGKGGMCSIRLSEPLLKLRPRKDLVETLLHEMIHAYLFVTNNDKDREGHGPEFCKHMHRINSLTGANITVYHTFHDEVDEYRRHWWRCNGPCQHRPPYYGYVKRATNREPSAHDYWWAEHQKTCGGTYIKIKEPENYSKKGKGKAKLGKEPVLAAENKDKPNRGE
Conditions: Probe annealing buffer: 10 mM HEPES pH 7.5, 50 mM NaCl; recombinant protein; residues 1-246.

For data set [5], the target named is T5, SPRTN 1-268 (human) (UniProt Q9H040).
T5 sequence (looked up): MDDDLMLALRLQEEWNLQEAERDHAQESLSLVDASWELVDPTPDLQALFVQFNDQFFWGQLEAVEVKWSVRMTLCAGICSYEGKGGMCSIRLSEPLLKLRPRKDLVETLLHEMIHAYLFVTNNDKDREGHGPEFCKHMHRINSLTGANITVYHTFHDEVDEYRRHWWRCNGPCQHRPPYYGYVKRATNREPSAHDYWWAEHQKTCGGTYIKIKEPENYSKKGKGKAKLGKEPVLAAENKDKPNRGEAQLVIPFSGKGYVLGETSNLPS
Particulars: medium DNA affinity; Probe annealing buffer: 10 mM HEPES pH 7.5, 50 mM NaCl; recombinant protein; residues 1-268.

For data set [6], the target named is T6, SPRTN 1-218 (human) (UniProt Q9H040).
T6 sequence (looked up): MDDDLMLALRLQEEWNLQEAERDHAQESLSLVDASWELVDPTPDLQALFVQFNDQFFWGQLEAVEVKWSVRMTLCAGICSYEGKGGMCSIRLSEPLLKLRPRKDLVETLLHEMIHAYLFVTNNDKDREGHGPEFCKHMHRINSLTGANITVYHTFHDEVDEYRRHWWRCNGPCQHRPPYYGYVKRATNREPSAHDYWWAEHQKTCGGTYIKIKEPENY
Particulars: low DNA affinity; Probe annealing buffer: 10 mM HEPES pH 7.5, 50 mM NaCl; recombinant protein; residues 1-218.

Substitutions are numbered along the chain they refer to. The exact form of at least one protein or probe is not confirmed. For some assays here: Weaker means in comparison with the reference protein, sequence or condition of that experiment. Where a protein sequence is shown, tags need not be part of it. For some assays here: At least one verdict rests on a figure or table, not on a statement of the authors.

As for “ATCGATAGTCGGATCCTCTAGACAGCTCCATGTAGCAAGGCACTGGTAGAATTCGGCAGCGTC / GACGCTGCCGAATTCTACCAGTGCCTTGCTAGGACATCTTTGCCCACCTGCAGGTTCACCC [splayed DNA (OD1/OD3)]”, the binding result in data set [1], in data set [2] and in data set [3] (affinity similar to dsDNA) was “binds” each time.
Take “ATCGATAGTCGGATCCTCTAGACAGCTCCATGTAGCAAGGCACTGGTAGAATTCGGCAGCGTC [ssDNA (OD1)]”: the binding result in data set [1] (single-stranded DNA) and in data set [2] (single-stranded DNA) was “binds” throughout.
For “ATCGATAGTCGGATCCTCTAGACAGCTCCATGTAGCAAGGCACTGGTAGAATTCGGCAGCGTC (double strand) [dsDNA 63 bp (OD1/OD2)]”, the Kd in data set [4] stood at 480 nM; in data set [3], 100 nM. In addition, the binding result in data set [1] is “binds”; in data set [2], “binds”; in data set [5], “binds more weakly”; in data set [6] it was “binds more weakly”.

By Kd is commonly meant the concentration at which binding is half-saturated.
